# This is one part of the list.
# By UniProt entry, the sequences of proteins in these tests, tags left out.
# UniProt Q0JBA9, entry or part of it: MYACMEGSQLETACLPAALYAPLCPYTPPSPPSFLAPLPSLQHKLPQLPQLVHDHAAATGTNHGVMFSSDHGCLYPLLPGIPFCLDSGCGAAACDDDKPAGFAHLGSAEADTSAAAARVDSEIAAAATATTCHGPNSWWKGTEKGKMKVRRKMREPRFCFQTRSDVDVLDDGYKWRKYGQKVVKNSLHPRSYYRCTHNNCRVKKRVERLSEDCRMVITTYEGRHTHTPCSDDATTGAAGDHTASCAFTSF
# Target: OsWRKY34 (Oryza sativa, UniProt Q0JBA9 1-250)
# Assay: protein-binding microarray (RPBM); PBS, 2% BSA, 51.3 ng/ul salmon testes DNA, 50 uM zinc acetate, 200 nM TF, 25 C, 1 h; high values mean tight binding
# Conditions: protein: recombinant; tags: N-terminal polyhistidine and DsRed monomer fusion (pET32a); label: CyDye5-dUTP incorporated in the synthesized complementary strand; 3' TTTTT single-stranded linker to array surface; dsDNA, one strand shown
# Procedure, shortened: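 A custom Agilent array was converted to double-stranded form by primer extension with Cy5-dUTP and blocked with 2% BSA. Protein at 200 nM in PBS with 2% BSA, salmon testes DNA and 50 µM zinc acetate was applied for 1 h at 25 °C, followed by washing. The proteins were polyhistidine–DsRed N-terminal fusions of transcription factors, expressed in E. coli BL21-CodonPlus and Ni–NTA-purified. The binding signal is per-feature fluorescence intensity (arbitrary units) from an Axon 4000B scanner.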
row,Sequence,binding signal
1,GCTTGTTTCTTTGCTGAATTATTATTTTGCTCATTCCACTCGGAGTCACCTAGTGCAG,10300 fluorescence intensity (a.u.)
2,TTTAAAAAAGTCAACGACGGCAAATATTTAGGGAAGGAGGCGGAGTCACCTAGTGCAG,9890 fluorescence intensity (a.u.)
3,AACTTTTTGATATACGCTCGATCATTCATCTTATTGAATACGGAGTCACCTAGTGCAG,8030 fluorescence intensity (a.u.)
4,CCCTGCTTCGTCACCACCGATGCCGTTTCTTTGGTCTCATCGGAGTCACCTAGTGCAG,8110 fluorescence intensity (a.u.)
5,ATATACACAACAATATTATCCCATCCATTTACAAGTATACCGGAGTCACCTAGTGCAG,8630 fluorescence intensity (a.u.)
6,GCTGCGGACGACGGATCTCTGTTTTTTTTTGTCCGCTGTACGGAGTCACCTAGTGCAG,9370 fluorescence intensity (a.u.)
7,AGTCGCCCATGCCATTCTTGAAATCTTCATATAGTCAATTCGGAGTCACCTAGTGCAG,9420 fluorescence intensity (a.u.)
8,ACGACGAGGAGGCGGTGGTGGTCGTGCGCGGGGAGGAGTCCGGAGTCACCTAGTGCAG,9310 fluorescence intensity (a.u.)
9,CACCTCGGCGTCGGTTTCTTCACTCTCCACCCATCCCCAGCGGAGTCACCTAGTGCAG,9390 fluorescence intensity (a.u.)
10,CAGCAGATTGCCCATCTCTCGTTGTACTGCCAATCTCTCCCGGAGTCACCTAGTGCAG,9530 fluorescence intensity (a.u.)
11,ACTCACCTCTCTCATCTTTCGTGCACACATTTTTCAATTTCGGAGTCACCTAGTGCAG,17700 fluorescence intensity (a.u.)
12,AATACTAAACTAATCTCGTTCTAATTGTTTGCTTAGTTTTCGGAGTCACCTAGTGCAG,8350 fluorescence intensity (a.u.)
13,TATTTTGTTGTGTTGCTAGTTTTCCTTCTTGTAGTGTAATCGGAGTCACCTAGTGCAG,11100 fluorescence intensity (a.u.)
14,AATGGTCAAATATGTAAGAAAAAGTCAACGGCGTCATCTACGGAGTCACCTAGTGCAG,12700 fluorescence intensity (a.u.)
15,CTGCTGTGTTGCACATTTTTCTGCTCTGTATACCTATAATCGGAGTCACCTAGTGCAG,12200 fluorescence intensity (a.u.)
16,CGCATTGATCTCAACTAGCTCGCCGGCGTCCCTTCGTCCTCGGAGTCACCTAGTGCAG,8420 fluorescence intensity (a.u.)
17,TGTATCTCAAATTCTTTCAGTTGGTTTTGTGCTCTTTTTACGGAGTCACCTAGTGCAG,8920 fluorescence intensity (a.u.)
18,TCCAGGGTTGTAATCTTGTAATTTTTTTCCTACTCTATCACGGAGTCACCTAGTGCAG,8770 fluorescence intensity (a.u.)
19,CGGTAACGTTTGTTATATCCTGTTGTTTCTATCCATCTCACGGAGTCACCTAGTGCAG,9920 fluorescence intensity (a.u.)
20,CGTTTTAAGCTTTCCATCGAGAAAAAAAAATGCGTTGACCCGGAGTCACCTAGTGCAG,11000 fluorescence intensity (a.u.)
21,TTTCTGACATGTCACTTGTTTATGTATTAGTTGCATTGTACGGAGTCACCTAGTGCAG,9520 fluorescence intensity (a.u.)
22,GGTAGATCTCCACGTTCCTTTTTTTTCCGTAATCCAAGATCGGAGTCACCTAGTGCAG,10400 fluorescence intensity (a.u.)
23,GCTTTGCCCATTGCCGCTCCGCCCGCAACCCGCTGCCACGCGGAGTCACCTAGTGCAG,9310 fluorescence intensity (a.u.)
24,AGTATGTATTAATTAAGCAAACACTCTAGCTTATTTTCTACGGAGTCACCTAGTGCAG,8030 fluorescence intensity (a.u.)
25,TTAGTTCACCCATCTTGCCAATGCTGTCATCGCCACAGCTCGGAGTCACCTAGTGCAG,8550 fluorescence intensity (a.u.)
26,CTCATACCCACCGAGTCTCACCGTCCCGACCCATCTCCTTCGGAGTCACCTAGTGCAG,8500 fluorescence intensity (a.u.)
27,GGCGGCCAGATCCGGGGCTGGGGAGGCGACGGCGGCGGGGCGGAGTCACCTAGTGCAG,8710 fluorescence intensity (a.u.)

# Individual results from the list:
# Value of GCTTTGCCCATTGCCGCTCCGCCCGCAACCCGCTGCCACGCGGAGTCACCTAGTGCAG under binding signal: 9310 fluorescence intensity (a.u.)
# Value of TGTATCTCAAATTCTTTCAGTTGGTTTTGTGCTCTTTTTACGGAGTCACCTAGTGCAG under binding signal: 8920 fluorescence intensity (a.u.)

# (cont.)

row,Sequence,binding signal
1,CGACTAACCCCGCTATTACTGTGTGCCACGTGGGCAATTACGGAGTCACCTAGTGCAG,8580 fluorescence intensity (a.u.)
2,TTTGTTCACTCCTAACGAGCATACACATCCTTTGGTTTGACGGAGTCACCTAGTGCAG,10600 fluorescence intensity (a.u.)
3,TTATTACTGTGTCCAACGCCTTTGCTCCCTTCTTCTTTCTCGGAGTCACCTAGTGCAG,9110 fluorescence intensity (a.u.)
4,GTAGGCCATGCAAATTAGTCAACTAATCCAGCTCGAGTTCCGGAGTCACCTAGTGCAG,8200 fluorescence intensity (a.u.)
5,CTCTTTCCTCGCCTCCACTCCAACCACCCCGCGATAGCTGCGGAGTCACCTAGTGCAG,8320 fluorescence intensity (a.u.)
6,CATCTCTCGCTCGCTCGCTCGCTCGCCGCTACGCCTCACGCGGAGTCACCTAGTGCAG,10100 fluorescence intensity (a.u.)
7,GTATCTAGCTTGGAGTAGTTCATTCTTTTTTTTTCCCTTTCGGAGTCACCTAGTGCAG,8170 fluorescence intensity (a.u.)
8,GATTGTGTGATGTATGTGTGGGGTGCTGGTTATGCTGATTCGGAGTCACCTAGTGCAG,14400 fluorescence intensity (a.u.)
9,GGCCGGCACTAGTCGCTTCCGTCCATTGGCGCTACCCTACCGGAGTCACCTAGTGCAG,10800 fluorescence intensity (a.u.)
10,GCGGAGGTGGTGTGGGTGGGTGAGTGAGTGAGGAGTGATGCGGAGTCACCTAGTGCAG,17400 fluorescence intensity (a.u.)
11,GTCGTGCTTGAATCTGCGTTGTGTGGATTTTTTTTCCCCGCGGAGTCACCTAGTGCAG,8740 fluorescence intensity (a.u.)
12,TATATATATATATATCCGATCCATTTTCATCCCCACTTAACGGAGTCACCTAGTGCAG,8250 fluorescence intensity (a.u.)
13,ATTTTGCCATTTTGTATGCTCTATAAATTTGATATGTTTTCGGAGTCACCTAGTGCAG,9640 fluorescence intensity (a.u.)
14,TCCGTAACTACTCTCTGCTCTCGTCGTTGTTTCATTTGTTCGGAGTCACCTAGTGCAG,10300 fluorescence intensity (a.u.)
15,CTGCCTGAGCTCACTTGACCTTACCACATGGGTTCAGATTCGGAGTCACCTAGTGCAG,8620 fluorescence intensity (a.u.)
16,CTCCGCCTCCGCCTCCGCCTCCCTCCTCACGCACGCCAAACGGAGTCACCTAGTGCAG,8360 fluorescence intensity (a.u.)
17,TTATCATGTCTACTACTAATCGGGTTGGGAATTGGAATTTCGGAGTCACCTAGTGCAG,11400 fluorescence intensity (a.u.)
18,TTTGTGTTGTTTGTGCTGTGTTTGCGCCGTTGACTCTGCCCGGAGTCACCTAGTGCAG,13600 fluorescence intensity (a.u.)
19,CCACCCGCCTCTCAGTCTCTTTCCGACCACGCATATATGTCGGAGTCACCTAGTGCAG,14800 fluorescence intensity (a.u.)
20,CCAATTTCATTCACTCACACGATCCACATGTTCACAAAACCGGAGTCACCTAGTGCAG,9850 fluorescence intensity (a.u.)
21,TTCTATCCAAGCCCAACTCACACCCACGCTGCTCGGCTCGCGGAGTCACCTAGTGCAG,8160 fluorescence intensity (a.u.)
22,TCTCTCTTACTGTCGCTCTTCTAGCCGGTCTGTTCAAACCCGGAGTCACCTAGTGCAG,10500 fluorescence intensity (a.u.)
23,ACCTAGTCCAAAACCACCTGTACACTGTTCTCTCTAAAAACGGAGTCACCTAGTGCAG,8680 fluorescence intensity (a.u.)
24,TAACCTCTGCATGTATGTTTCTTTTCGTTCTGATCATTCACGGAGTCACCTAGTGCAG,11000 fluorescence intensity (a.u.)
25,ATAAAGGGCTGGTTTGGTTTGTGGCCTAACTTGACCTTACCGGAGTCACCTAGTGCAG,8180 fluorescence intensity (a.u.)
26,TGAAGATGTTTTTGCTGGTACTTTGGTACGTTATCCGTATCGGAGTCACCTAGTGCAG,8170 fluorescence intensity (a.u.)
27,CCATGTCCGGATTCTCTAGGATTGCCTCCAATTTCTTCGCCGGAGTCACCTAGTGCAG,8890 fluorescence intensity (a.u.)

# Source: paper PMC7819943, “Rice protein-binding microarrays: a tool to detect cis-acting elements near promoter regions in rice”
